Laboratory results published in patent US20170349667A1.
These are yes or no findings as the source states them, for the method shown. For part of these data: Binding can be weak; no strength is given.

Legend:
[1] = biological target: llama-human c-Met chimera LS2 (aa1-199) (Llama glama; human); experiment: SPR, 36C4 coupled to CM-5 chip
[2] = biological target: llama-human c-Met chimera LS3 (aa1-287) (Llama glama; human); experiment: SPR, 36C4 coupled to CM-5 chip
[3] = biological target: llama-human c-Met chimera LS4 (aa1-348) (Llama glama; human); experiment: SPR, 36C4 coupled to CM-5 chip
[4] = biological target: llama-human c-Met chimera LS5 (aa1-448) (Llama glama; human); experiment: SPR, 36C4 coupled to CM-5 chip
[5] = biological target: c-Met SEMA domain (ectodomain fragment) (human); experiment: ELISA, coated c-Met ectodomains
[6] = biological target: c-Met SEMA-PSI (ectodomain fragment) (human); experiment: ELISA, SEMA-PSI coated, anti-human Fc detection
[7] = biological target: llama-human c-Met chimera L110 (aa608-909) (human; Llama glama); experiment: SPR, 36C4 coupled to CM-5 chip, chimera at 10 µg/ml
[8] = biological target: llama-human c-Met chimera L111 (aa634-909) (human; Llama glama); experiment: as above
[9] = biological target: llama-human c-Met chimera L18 (aa540-909) (human; Llama glama); experiment: as above
[10] = biological target: llama-human c-Met chimera L19 (aa572-909) (human; Llama glama); experiment: as above
[11] = biological target: llama-human c-Met chimera LP6 (aa497-909) (human; Llama glama); experiment: as above
[12] = biological target: llama-human c-Met chimera LP7*(aa523-909), T737I (human; Llama glama); experiment: as above
[13] = biological target: llama-human c-Met chimera LS1 (aa1-98) (Llama glama; human); experiment: as above
[14] = biological target: c-Met SEMA domain (ectodomain fragment) (human); experiment: ELISA, c-Met ectodomains coated at 1 µg/ml, HRP-Protein A
[15] = biological target: llama-human c-Met chimera LS2 (aa1-199) (Llama glama; human); experiment: ELISA, 36C4 coated at 2 µg/ml, chimera detected with streptavidin-HRP
[16] = biological target: llama-human c-Met chimera LS3 (aa1-287) (Llama glama; human); experiment: as above
[17] = biological target: llama-human c-Met chimera LS4 (aa1-348) (Llama glama; human); experiment: as above
[18] = biological target: llama-human c-Met chimera LS5 (aa1-448) (Llama glama; human); experiment: as above
[19] = biological target: c-Met SEMA-PSI (ectodomain fragment) (human); experiment: ELISA: SEMA-PSI coated, parental mAb, HRP goat anti-human Fc, 620 nm
[20] = biological target: Llama glama c-Met ECD (aa 25-932) with His tag (Llama glama); experiment: ELISA: 200 ng of recombinant c-Met ECD protein coated, mAb 1 h, HRP goat anti-human antibody, TMB, OD 620 nm
[21] = biological target: c-Met SEMA domain (ectodomain fragment) (human); experiment: ELISA: c-Met ectodomain coated at 1 µg/ml, mAb in three-fold dilutions from 1 µg/ml, HRP-Protein A, TMB, OD 450
[22] = biological target: c-Met SEMA-PSI (ectodomain fragment) (human); experiment: as above
[23] = biological target: c-Met SEMA-PSI-IPT1-2 (ectodomain fragment) (human); experiment: as above
[24] = biological target: human c-Met ECD (aa 25-932) with His tag (human); experiment: ELISA on chimeric c-Met ECD
[25] = biological target: c-Met IPT3-4 (ectodomain fragment) (human); experiment: ELISA on coated c-Met ectodomains
[26] = biological target: Decoy c-Met (extracellular domain of human c-Met) (human); experiment: ELISA, c-Met ectodomains coated at 1 µg/ml, HRP-Protein A
[27] = biological target: human c-Met ECD (aa 25-932) with His tag (human); experiment: ELISA, 200 ng coated c-Met ECD construct, anti-human HRP detection
[28] = biological target: human c-Met ECD (aa 25-932) with His tag (human); experiment: ELISA: 200 ng of recombinant c-Met ECD protein coated, mAb 1 h, HRP goat anti-human antibody, TMB, OD 620 nm
[29] = biological target: llama-human c-Met chimera LP6 (aa497-909) (human; Llama glama); experiment: SPR, 48A2 coupled to CM-5 chip
[30] = biological target: llama-human c-Met chimera LP7*(aa523-909), T737I (human; Llama glama); experiment: SPR, 48A2 coupled to CM-5 chip
[31] = biological target: llama-human c-Met chimera L111 (aa634-909) (human; Llama glama); experiment: SPR, 48A2 coupled to CM-5 chip, chimera at 10 µg/ml
[32] = biological target: llama-human c-Met chimera LS1 (aa1-98) (Llama glama; human); experiment: as above
[33] = biological target: llama-human c-Met chimera LS2 (aa1-199) (Llama glama; human); experiment: as above
[34] = biological target: llama-human c-Met chimera LS3 (aa1-287) (Llama glama; human); experiment: as above
[35] = biological target: llama-human c-Met chimera LS4 (aa1-348) (Llama glama; human); experiment: as above
[36] = biological target: llama-human c-Met chimera LS5 (aa1-448) (Llama glama; human); experiment: as above
[37] = biological target: llama-human c-Met chimera LP6 (aa497-909) (human; Llama glama); experiment: ELISA, 48A2 coated at 2 µg/ml, chimera detected with streptavidin-HRP
[38] = biological target: llama-human c-Met chimera LP7*(aa523-909), T737I (human; Llama glama); experiment: as above

B1: 36C4 mAb (antibody, human IgG1, V domains shown)
VH: QVQLVESGPGLVKPSQTLSLTCAVSGGSITTNYYYWSWIRQSPGKGLEWMGVIAYDGSTDYSPSLKSRTSISRDTSKNQFSLQLSSVTPEDTAVYYCARDVRVIATGWATANALDAWGQGTLVTVSS
VL: QSVLTQPPSVSGSPGKTVTISCAGTSSDVGYGNYVSWYQQLPGTAPKLLIFAVSYRASGIPDRFSGSKSGNTAFLTISGLQSEDEADYYCASYRSSNNAAVFGGGTHLTVL
- binding [1]: no binding (tested: 10 µg/ml)
- binding [2]: no binding (tested: 10 µg/ml)
- binding [3]: no binding (tested: 10 µg/ml)
- binding [4]: no binding (tested: 10 µg/ml)
- binding [5]: binds
- binding [6]: binds
- binding [7]: binds
- binding [8]: binds
- binding [9]: binds
- binding [10]: binds
- binding [11]: binds
- binding [12]: binds
- binding [13]: binds
- binding [14]: binds
- binding [15]: no binding
- binding [16]: no binding
- binding [17]: no binding
- binding [18]: no binding
- binding [19]: binds
- binding [20]: no binding (tested: about 1e-7 M)
- binding [21]: binds
- binding [22]: binds
- binding [23]: binds

B2: 13E6 mAb (antibody, human IgG1, V domains shown)
VH: QVQLQESGGDLVQPGGSLRLSCAASGFTFDDYVMNWVRQAPGKGLEWISAINWNGGSTYYAESMKGRFTISRDNAKNTLYLQMYSLQSDDTAVYYCVKDTVVSGNGYWGQGTQVTVSS
VL: QSVLTQPPSVSGTLGKTVTISCAGTSSDIGDYNYVSWYQQLPGTAPKLLIYDVNKRASGIPDRFSGSKSGNTASLSISGLQSEDEADYYCASYRSRNDYAFGGGTKLTVL
- binding [24]: binds
- binding [25]: no binding (tested: 1 µg/ml)
- binding [26]: binds
- binding [27]: binds
- binding [20]: no binding (tested: about 1e-7 M)
- binding [28]: binds

B3: 48A2 mAb (antibody, human IgG1, V domains shown)
VH: EVQLVQPGVELRNPGASVKVSCKASGYIFTMNSIDWVRQAPGQGLEWMGRIDPEDGGTKYAQKFQGRVTFTADTSTSTAYVELNSLRSEDTAVYYCARVDDYYLGYDYWGQGTQVTVSS
VL: DIVMTQTPTSVTASAGDKVTINCKSSQSVLFSSNQKNYLAWYQQRLGQSPRLLIYWASIRESGVPDRFSGSGSATDFTLTISNFQPEDAAVYYCQQGYSFPYSFGSGTRLEIR
- binding [29]: no binding (tested: 10 µg/ml)
- binding [30]: no binding (tested: 10 µg/ml)
- binding [31]: binds
- binding [32]: binds
- binding [33]: binds
- binding [34]: binds
- binding [35]: binds
- binding [36]: binds
- binding [37]: no binding
- binding [38]: no binding
